Measured values taken from patent US8901118B2, “Compounds and methods for kinase modulation, and indications therefor” (Plexxikon Inc., priority 2010, dated 2014).
Some results were stated once for a whole list of compounds, not compound by compound. For at least one compound, name, drawing or mass did not settle the structure.

Test system: Osteoclast precursor cells
Test: Osteoclast differentiation assay (acid phosphatase readout)
Type: cell-based
Procedure: Further, an osteoclast differentiation assay is used to assess the efficacy of Fms inhibitors for treating bone disease such as osteoarthritis. On day 0, Osteoclast Medium BulletKit (Lonza catalog #PT-8001, containing Media, FBS, L-Glutamine, PenStrep, RANKL, and M-CSF) media is thawed and the FBS, L-glutamine and PenStrep from the kit is added to 100 mL of Osteoclast Precursor Basal medium to provide the Osteoclast Precursor Growth Medium (OPGM). This is warmed to 37° C. Osteoclast precursor cells (Lonza catalog #2T-110) frozen in cryovial are warmed to 37° C. and transferred to a 50 mL conical tube. The cryovial is rinsed with OPGM and added dropwise to the conical tube of cells with swirling, then the volume is adjusted to 20-30 mL with addition of OPGM. The cells are centrifuged at 200×g for 15 minutes at room temperature and all but approximately 3 mL of supernatant is removed to a new conical tube. The cells are suspended in the remaining supernatant and the volume is adjusted to 10-15 mL with OPGM added dropwise with swirling. The cells are centrifuged at 200×g for 15 minutes at room temperature and all but approximately 1 mL of supernatant is removed. The cells are resuspended in the remaining supernatant, counted, and the volume adjusted with an appropriate amount of OPGM to provide approximately 1×10^5 cells/mL. A 0.1 mL aliquot of cells is added to each well of a 96-well plate. Compound to be tested is prepared in DMSO for plating at a high concentration of 2.5 mM, with 8 point 1:3 serial dilutions. A 1 μL aliquot of each compound dilution is added to a 96 well v-bottom polypropylene plate and 0.124 mL of OPGM is added to the compound. Then 50 μL at of the compound in OPGM is added to the osteoclast precursor cells in 96-well plate (providing highest test concentration of 5 μM). RANKL (2 μg) from the BulletKit is reconstituted in 1 mL of OPGM, then vortexed and centrifuged briefly. A 792 μL at aliquot of RANKL is added to 6 mL of OPGM and 50 μL at is added to low control wells. Then 76.6 μL M-CSF (10 μg/mL) from the BulletKit is added to the remaining 5.8 mL of OPGM/RANKL solution (4×RANKL/M-CSF/OPGM). A 50 μL at aliquot of this is added to the remaining wells, and the remainder is stored at 4° C. for later use. The plate is incubated at 37° C. for 6 days, then the remaining OPGM/RANKL/M-CSF solution is warmed to 37° C. The remaining approximately 198 μL is combined with 6 mL of OPGM. The media is aspirated from the osteoclast wells and 100 μL of RANKL/OPGM is added to the low controls. The remaining RANKL/OPGM is combined with the approximately 18.5 μL of remaining M-CSF. The remaining 4×RANKL/M-CSF/OPGM from day 0 is diluted to 1× and combined with the freshly prepared solution. A 0.1 mL aliquot of this is added to each osteoclast well and incubated for 37° C. for 1 day. The Acid Phosphatase kit (Cayman Chemical catalog #10008051) is warmed to room temperature. The assay buffer is diluted 5 mL with 45 mL of water. For each plate, two substrate tablets are dissolved in 4.5 mL of the assay buffer, mixing by vortex to break up the tablet. Stop solution is diluted 12 mL with 36 mL of water. In a tissue culture hood, 20 μL of each osteoclast well supernatant is transferred to a 96 well plate. A 30 μL aliquot of the substrate solution is added to each well and incubated at 37° C. for 20 minutes, then added 100 μL stop solution to each well. The absorbance of each well is read at 405 nm on Safire plate reader. The absorbance reading is plotted vs. concentration to provide the IC50 for each compound.

SMILES | activity in the osteoclast differentiation assay
O=C(c1ccc(Nc2ccc(C(F)(F)F)nc2)nc1F)c1c[nH]c2ncnc(NC3CC3)c12 [Compound P-4091, [4-(cyclopropylamino)-7H-pyrrolo[2,3-d]pyrimidin-5-yl]-[2-fluoro-6-[[6-(trifluoromethyl)-3-pyridyl]amino]-3-pyridyl]methanone] | showed activity
Cc1ccc(Nc2ccc(C(=O)c3c[nH]c4ncc(Cl)cc34)c(F)n2)cn1 [Compound P-3044, (5-Chloro-1H-pyrrolo[2,3-b]pyridin-3-yl)-[2-fluoro-6-(6-methyl-pyridin-3-ylamino)-pyridin-3-yl]-methanone] | showed activity
COc1ccc(Nc2ccc(C(=O)c3c[nH]c4ncnc(NC5CC5)c34)c(F)n2)cn1 [Compound P-4126, [4-(cyclopropylamino)-7H-pyrrolo[2,3-d]pyrimidin-5-yl]-[2-fluoro-6-[(6-methoxy-3-pyridyl)amino]-3-pyridyl]methanone] | showed activity
COc1cncc(Nc2ccc(C(=O)c3c[nH]c4ncnc(NC(C)C)c34)c(F)n2)c1 [Compound P-4106, [2-fluoro-6-[(5-methoxy-3-pyridyl)amino]-3-pyridyl]-[4-(isopropylamino)-7H-pyrrolo[2,3-d]pyrimidin-5-yl]methanone] | showed activity
O=C(c1ccc(Nc2ccc(C3CC3)nc2)nc1F)c1c[nH]c2ncnc(NC3CC3)c12 [Compound P-4093, [4-(cyclopropylamino)-7H-pyrrolo[2,3-d]pyrimidin-5-yl]-[6-[(6-cyclopropyl-3-pyridyl)amino]-2-fluoro-3-pyridyl]methanone] | showed activity
COc1ccc(Nc2ccc(C(=O)c3c[nH]c4ncnc(NC5CCCC5)c34)c(F)n2)cn1 [Compound P-4075, [4-(cyclopentylamino)-7H-pyrrolo[2,3-d]pyrimidin-5-yl]-[2-fluoro-6-[(6-methoxy-3-pyridyl)amino]-3-pyridyl]methanone] | showed activity
Nc1ncnc2[nH]cc(C(=O)c3ccc(Nc4ccc(C5CC5)nc4)nc3F)c12 [Compound P-4048, (4-amino-7H-pyrrolo[2,3-d]pyrimidin-5-yl)-[6-[(6-cyclopropyl-3-pyridyl)amino]-2-fluoro-3-pyridyl]methanone] | showed activity
CCCNc1ncnc2[nH]cc(C(=O)c3ccc(Nc4ccc(C)nc4)nc3F)c12 [Compound P-4114, [2-fluoro-6-[(6-methyl-3-pyridyl)amino]-3-pyridyl]-[4-(propylamino)-7H-pyrrolo[2,3-d]pyrimidin-5-yl]methanone] | showed activity
COc1ccc(Nc2ccc(C(=O)c3c[nH]c4ncnc(NC5CCCCC5)c34)c(F)n2)cn1 [Compound P-4082, [4-(cyclohexylamino)-7H-pyrrolo[2,3-d]pyrimidin-5-yl]-[2-fluoro-6-[(6-methoxy-3-pyridyl)amino]-3-pyridyl]methanone] | showed activity
Cc1ccc(Nc2ccc(C(=O)c3c[nH]c4ncnc(NC5CCCCC5)c34)c(F)n2)cn1 [Compound P-4111, [4-(cyclohexylamino)-7H-pyrrolo[2,3-d]pyrimidin-5-yl]-[2-fluoro-6-[(6-methyl-3-pyridyl)amino]-3-pyridyl]methanone] | showed activity
CCOc1ccc(Nc2ncc(Cc3c[nH]c4ncc(C)cc34)cn2)cn1 [Compound P-3027, (6-Ethoxy-pyridin-3-yl)-[5-(5-methyl-1H-pyrrolo[2,3-b]pyridin-3-ylmethyl)-pyrimidin-2-yl]-amine] | showed activity
CCn1cc(Nc2ccc(Cc3c[nH]c4ncnc(C5CC5)c34)c(F)n2)cn1 [Compound P-4036, [5-(4-Cyclopropyl-7H-pyrrolo[2,3-d]pyrimidin-5-ylmethyl)-6-fluoro-pyridin-2-yl]-(1-ethyl-1H-pyrazol-4-yl)-amine] | showed activity
CNc1ncnc2[nH]cc(C(=O)c3ccc(Nc4ccc(OC)nc4)nc3F)c12 [Compound P-4083, [2-fluoro-6-[(6-methoxy-3-pyridyl)amino]-3-pyridyl]-[4-(methylamino)-7H-pyrrolo[2,3-d]pyrimidin-5-yl]methanone] | showed activity
CNc1ncnc2[nH]cc(C(=O)c3ccc(NC4CCC(F)(F)CC4)nc3Cl)c12 [Compound P-4058, [2-chloro-6-[(4,4-difluorocyclohexyl)amino]-3-pyridyl]-[4-(methylamino)-7H-pyrrolo[2,3-d]pyrimidin-5-yl]methanone] | showed activity
Cc1ccc(Nc2ccc(C(=O)c3c[nH]c4ncnc(NCC(F)(F)F)c34)c(F)n2)cn1 [Compound P-4112, [2-fluoro-6-[(6-methyl-3-pyridyl)amino]-3-pyridyl]-[4-(2,2,2-trifluoroethylamino)-7H-pyrrolo[2,3-d]pyrimidin-5-yl]methanone] | showed activity
O=C(c1ccc(NC2CCC(F)(F)CC2)nc1)c1c[nH]c2ncnc(NCC(F)(F)F)c12 [Compound P-4087, [6-[(4,4-difluorocyclohexyl)amino]-3-pyridyl]-[4-(2,2,2-trifluoroethylamino)-7H-pyrrolo[2,3-d]pyrimidin-5-yl]methanone] | showed activity
Cc1ccc(Nc2ccc(C(=O)c3c[nH]c4ncnc(C5CC5)c34)c(F)n2)cn1 [Compound P-4031, (4-Cyclopropyl-7H-pyrrolo[2,3-d]pyrimidin-5-yl)-[2-fluoro-6-(6-methyl-pyridin-3-ylamino)-pyridin-3-yl]-methanone] | showed activity
O=C(c1ccc(NC2CCC(F)(F)CC2)nc1)c1c[nH]c2ncnc(NC3CC3)c12 [Compound P-4088, [4-(cyclopropylamino)-7H-pyrrolo[2,3-d]pyrimidin-5-yl]-[6-[(4,4-difluorocyclohexyl)amino]-3-pyridyl]methanone] | showed activity
O=C(c1ccc(NC2CCC(F)(F)CC2)nc1F)c1c[nH]c2ncnc(NC3CC3)c12 [Compound P-4062, [4-(cyclopropylamino)-7H-pyrrolo[2,3-d]pyrimidin-5-yl]-[6-[(4,4-difluorocyclohexyl)amino]-2-fluoro-3-pyridyl]methanone] | showed activity
CC(C)=CNc1ncnc2[nH]cc(C(=O)c3ccc(NC4CCC(F)(F)CC4)nc3Cl)c12 [Compound P-4047, [2-chloro-6-[(4,4-difluorocyclohexyl)amino]-3-pyridyl]-[4-(2-methylprop-1-enylamino)-7H-pyrrolo[2,3-d]pyrimidin-5-yl]methanone] | showed activity
CCc1ccc(Nc2ccc(C(=O)c3c[nH]c4ncnc(NCCCOC)c34)c(F)n2)cn1 [Compound P-4098, [6-[(6-ethyl-3-pyridyl)amino]-2-fluoro-3-pyridyl]-[4-(3-methoxypropylamino)-7H-pyrrolo[2,3-d]pyrimidin-5-yl]methanone] | showed activity
Fc1nc(NC2CCC(F)(F)CC2)ccc1Cc1c[nH]c2ncc(Cl)cc12 [Compound P-3013, [5-(5-Chloro-1H-pyrrolo[2,3-b]pyridin-3-ylmethyl)-6-fluoro-pyridin-2-yl]-(4,4-difluoro-cyclohexyl)-amine] | showed activity
